Measured values as given in patent US11642333B2, “Inhalable formulation of a solution containing vilanterol trifenatate and umeclidinium bromide” (ANOVENT PHARMACEUTICAL (U.S.), LLC, priority 2019, dated 2023).
Some results were stated once for a whole list of compounds, not compound by compound.

Assay: Aerodynamic particle size distribution, Next Generation Impactor (NGI)
Assay type: physicochemical
Conditions: Sample III sprayed by soft mist inhaler; NGI at 30 L/min

With `OC(c1ccccc1)(c1ccccc1)C12CC[N+](CCOCc3ccccc3)(CC1)CC2.[Br-]` [Umeclidinium bromide, 1-[2-(Benzyloxy)ethyl]-4-(hydroxydiphenylmethyl)-1-azoniabicyclo [2.2.2] octane bromide] the “mass median aerodynamic diameter (MMAD)” value was “less than 10”.
